Measured values published in paper PMC6095836.
These are yes or no findings as the source states them, for the method shown. In cells and extracts the contact can be indirect. Some binding calls cover weakened binding; strength is not graded here.

Amino acid sequences for entries named in this document (tags omitted). A change or cut given only in a name is not applied to a line headed by its entry.
UniProt P03372: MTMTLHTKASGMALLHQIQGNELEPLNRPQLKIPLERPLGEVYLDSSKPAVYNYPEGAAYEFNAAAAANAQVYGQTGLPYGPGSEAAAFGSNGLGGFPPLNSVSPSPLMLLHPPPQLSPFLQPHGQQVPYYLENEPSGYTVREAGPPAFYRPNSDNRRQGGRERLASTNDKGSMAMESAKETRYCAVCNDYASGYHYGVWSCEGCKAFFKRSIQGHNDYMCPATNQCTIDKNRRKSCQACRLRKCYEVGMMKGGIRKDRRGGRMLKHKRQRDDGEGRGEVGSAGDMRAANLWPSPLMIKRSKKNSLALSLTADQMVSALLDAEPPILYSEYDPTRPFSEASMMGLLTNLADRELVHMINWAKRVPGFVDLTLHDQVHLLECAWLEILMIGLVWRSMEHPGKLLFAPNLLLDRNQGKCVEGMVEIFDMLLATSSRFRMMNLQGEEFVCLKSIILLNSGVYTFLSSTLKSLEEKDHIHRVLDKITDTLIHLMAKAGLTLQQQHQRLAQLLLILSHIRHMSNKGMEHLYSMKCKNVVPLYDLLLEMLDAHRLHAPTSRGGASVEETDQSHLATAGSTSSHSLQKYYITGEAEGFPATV
UniProt Q8IZL8: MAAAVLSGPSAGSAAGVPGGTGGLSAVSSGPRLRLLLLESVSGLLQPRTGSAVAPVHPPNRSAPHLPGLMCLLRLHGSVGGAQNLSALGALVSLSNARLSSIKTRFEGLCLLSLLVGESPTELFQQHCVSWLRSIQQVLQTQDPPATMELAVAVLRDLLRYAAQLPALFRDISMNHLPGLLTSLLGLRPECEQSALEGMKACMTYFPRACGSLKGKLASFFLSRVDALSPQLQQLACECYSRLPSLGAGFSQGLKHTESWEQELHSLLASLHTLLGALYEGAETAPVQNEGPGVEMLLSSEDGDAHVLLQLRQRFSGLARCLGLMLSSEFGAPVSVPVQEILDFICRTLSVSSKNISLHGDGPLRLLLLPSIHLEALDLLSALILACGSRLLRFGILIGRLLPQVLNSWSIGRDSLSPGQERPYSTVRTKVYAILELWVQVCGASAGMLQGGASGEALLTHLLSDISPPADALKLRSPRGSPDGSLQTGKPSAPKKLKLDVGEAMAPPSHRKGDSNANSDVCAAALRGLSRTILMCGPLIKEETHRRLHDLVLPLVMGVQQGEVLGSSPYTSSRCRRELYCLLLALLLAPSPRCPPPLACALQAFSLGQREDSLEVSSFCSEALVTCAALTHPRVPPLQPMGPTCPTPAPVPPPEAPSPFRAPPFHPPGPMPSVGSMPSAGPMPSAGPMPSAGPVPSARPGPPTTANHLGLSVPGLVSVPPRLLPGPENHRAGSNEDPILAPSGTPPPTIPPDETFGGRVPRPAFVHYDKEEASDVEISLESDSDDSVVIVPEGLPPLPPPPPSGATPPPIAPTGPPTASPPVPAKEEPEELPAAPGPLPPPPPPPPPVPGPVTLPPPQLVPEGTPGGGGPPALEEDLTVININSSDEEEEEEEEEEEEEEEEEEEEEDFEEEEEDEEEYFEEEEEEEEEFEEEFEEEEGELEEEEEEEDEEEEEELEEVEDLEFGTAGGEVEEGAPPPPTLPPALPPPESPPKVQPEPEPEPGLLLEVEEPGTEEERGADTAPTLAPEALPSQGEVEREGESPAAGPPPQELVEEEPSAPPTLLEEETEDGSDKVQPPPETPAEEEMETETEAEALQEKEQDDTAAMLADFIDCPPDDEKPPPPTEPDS
UniProt P62195: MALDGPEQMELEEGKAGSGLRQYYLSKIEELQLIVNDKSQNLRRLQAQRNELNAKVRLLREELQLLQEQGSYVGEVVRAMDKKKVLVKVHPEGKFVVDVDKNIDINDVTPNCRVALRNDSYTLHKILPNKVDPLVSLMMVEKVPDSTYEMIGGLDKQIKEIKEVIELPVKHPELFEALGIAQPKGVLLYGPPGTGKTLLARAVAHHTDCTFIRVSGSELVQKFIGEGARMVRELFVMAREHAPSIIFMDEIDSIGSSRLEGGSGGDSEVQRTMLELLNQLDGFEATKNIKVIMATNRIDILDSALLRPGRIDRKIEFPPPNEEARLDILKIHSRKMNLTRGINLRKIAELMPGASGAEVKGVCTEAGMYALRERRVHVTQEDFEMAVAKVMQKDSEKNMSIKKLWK
UniProt P25786: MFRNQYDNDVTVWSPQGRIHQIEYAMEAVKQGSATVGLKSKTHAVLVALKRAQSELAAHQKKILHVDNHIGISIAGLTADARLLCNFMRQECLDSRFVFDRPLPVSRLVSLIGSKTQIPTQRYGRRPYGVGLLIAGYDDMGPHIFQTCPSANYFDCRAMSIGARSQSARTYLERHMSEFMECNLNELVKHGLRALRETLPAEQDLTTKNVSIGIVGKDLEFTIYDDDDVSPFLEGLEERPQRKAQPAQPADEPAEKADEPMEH

Columns and labels:
[1] = target: Y537S ERα (recombinant, purified) (UniProt P03372); assay: pull-down; ERE DNA pulldown as for MS (purified receptor on immobilised 4xERE DNA, HeLa S3 nuclear extract), independent samples, no E2, read by immunoblotting; only the target purified
[2] = target: ESR1-YAP1 fusion protein (recombinant, purified) (UniProt P03372); assay: as above

Substance | binding [1] | binding [2]
PELP1, endogenous (from UniProt Q8IZL8 1-1130) | binds | –
SUG1/PSMC5, endogenous (from UniProt P62195 1-406) | – | binds
20S C2/PSMA1, endogenous (from UniProt P25786 1-263) | – | binds
